Laboratory results: PubChem BioAssay AID504648 (National Center for Advancing Translational Sciences (NCATS), 2011)
About 610 (0.16%) of roughly 390,000 compounds were called active. Inconclusive means that the source gave no clear call. Such entries were picked first, then a sample of the others. Calls come from the whole dose curve; as a rule, active = well fitted inhibition curve with a large enough effect; inconclusive = small, poorly fitted or top-dose-only effect, or effect the other way, or another doubt; inactive = no such curve, though single readings can be large or run the other way. Potencies of inconclusive entries are doubtful fits and often do not repeat.

Experiment: Nrf2 qHTS screen for inhibitors: counterscreen for cytotoxicity
Conditions: A549 ARE-Fluc cells, CellTiter-Fluor viability, 18-24 h; series mostly up to 46 µM
In short: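 Cytotoxicity counterscreen: CellTiter-Fluor fluorescence was measured in A549 ARE_Fluc cells after 18-24 h of compound exposure in a concentration series. The subsequent BugLite luminescent read reports ARE-luciferase activity.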
Potency is the fitted concentration of half-maximal effect.

**Q.** Which Potency does the source give for `COc1ccccc1Nc1nn2c(=O)c3ccc(C(=O)NCCc4ccccc4)cc3nc2s1` here?
**A.** Its Potency is active: 8.2 µM.

**Q.** With `CCCCN(C(=O)NC(=O)C1=C(N2CCOCC2)/C(=C/c2ccccc2)CC1)S(C)(=O)=O` as the compound, how does the Potency read?
**A.** Its Potency is inconclusive: 32.6 µM [activator, partial curve, poor fit].

**Q.** Which Potency does the source give for `COc1cccc(=O)c2c(C)n(CC(=O)c3ccccc3)c(C)c12` here?
**A.** Its Potency is inconclusive: 20.6 µM [falling, partial curve, poor fit].

**Q.** Which Potency does the source give for `Cc1c(CN(C)C)c2c(n1Cc1ccccc1)C(=O)c1ccc(Br)cc1-2` here?
**A.** Its Potency is inconclusive: 29.1 µM [falling, single point].

**Q.** For `O=C(NN=C(c1ccccc1)c1ccccn1)c1ccccc1`, which Potency is on record?
**A.** Its Potency is inconclusive: 0.731 µM [falling, full curve].

**Q.** For `Nc1ncc(Br)cc1S(=O)(=O)Nc1cc(C(F)(F)F)cc(C(F)(F)F)c1`, which Potency is on record?
**A.** Its Potency is inconclusive: 23.1 µM [falling, single point].

**Q.** With `O=C(NC1CCCCC1)c1noc2c1CCCCC2` as the compound, how does the Potency read?
**A.** Its Potency is inconclusive: 23.1 µM [falling, single point].

**Q.** Which Potency does the source give for `CCN(C(=O)COC(=O)c1ccccc1Oc1ccccc1)c1c(N)n(Cc2ccccc2)c(=O)[nH]c1=O` here?
**A.** The Potency was inconclusive: 29.1 µM [falling, single point].

**Q.** For `Fc1ccc(-c2nc(-c3cccs3)[nH]c2-c2ccc(F)cc2)cc1`, which Potency is on record?
**A.** Its Potency is “inactive”.

**Q.** With `CCOC(=O)c1ccc(NC(=O)C2=C(C)C(=O)OC23CCN(C(C)C)CC3)cc1` as the compound, how does the Potency read?
**A.** Its Potency is “inactive”.

**Q.** Which Potency does the source give for `O=[N+]([O-])c1ccc(O)c(-c2cc(C(F)(F)F)nc(-c3ccccc3)n2)c1` here?
**A.** Its Potency is active: 8.2 µM.

**Q.** Which Potency does the source give for `O=C(Nc1ccc(OC(F)(F)F)cc1)N1CCN(c2ccnc3cc(Cl)ccc23)CC1` here?
**A.** The Potency was inconclusive: 10.3 µM [falling, partial curve, poor fit].

**Q.** Which Potency does the source give for `Cc1ccc(C2=CC(c3ccccc3)n3ncnc3N2)cc1` (stereo not drawn) here?
**A.** Its Potency is “inactive”.

**Q.** Which Potency does the source give for `COc1ccc(NC2=C(Cl)C(=O)N(CCc3ccccc3)C2=O)c(OC)c1` here?
**A.** The Potency was “inactive”.

**Q.** Which Potency does the source give for `Cc1ccc(-n2ncc(C(=O)NCCN3CCC(Cc4ccccc4)CC3)c2C2CCN(C(=O)OC(C)(C)C)CC2)cc1` here?
**A.** The Potency was inconclusive: 29.1 µM [falling, single point].

**Q.** With `O=C(Nc1c2c(nn1-c1ccc(Cl)cc1)CS(=O)(=O)C2)c1ccc(Br)cc1` as the compound, how does the Potency read?
**A.** The Potency was “inactive”.

**Q.** With `O=C(c1ccc(S(=O)(=O)c2ccc(F)cc2)c([N+](=O)[O-])c1)N1CCCCCC1` as the compound, how does the Potency read?
**A.** Its Potency is inconclusive: 16.4 µM [falling, single point].

**Q.** Which Potency does the source give for `COc1ccc(S(=O)(=O)N(CC(=O)Nc2ccc(Br)cc2)Cc2ccccc2)cc1` here?
**A.** The Potency was inconclusive: 29.1 µM [falling, partial curve, poor fit].
